Values after ≈ are worked out from the molar mass of the structure shown.
Tested on: Candida albicans
Experiment: Antifungal activity against Candida albicans by agar dilution method
Format: functional

## C[C@@H]1[C@H](O)[C@@H](C)/C=C/C=C/C=C/C=C/C=C/C=C/C=C/[C@H](O[C@@H]2O[C@H](C)[C@@H](O)[C@H](N)[C@@H]2O)C[C@@H]2O[C@](O)(C[C@@H](O)C[C@@H](O)[C@H](O)CC[C@@H](O)C[C@@H](O)CC(=O)O[C@H]1C)C[C@H](O)[C@H]2C(=O)O [AMPHOTERICIN B]
  MIC: 3 µg/mL (≈ 3.25 µM)

From ChEMBL document CHEMBL1158194, “Phytogrowth-inhibitory compounds from Malmea depressa” (J Nat Prod, 1996)
